Measurements as given in PubChem BioAssay AID2685 (National Center for Advancing Translational Sciences (NCATS), 2010).
The list shows a part of the results. Further columns of the screen follow, without active or inactive calls. The list favours compounds with an active or inconclusive main result. Words in brackets tell the shape of the fitted curve; partial curves, single points and poor fits give uncertain potencies.

Assay: qHTS Assay for Lipid Storage Modulators in Drosophila S3 Cells;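 as to cell number change: cells counted by Cell Tracker Red CMTPX staining in the red channel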
Conditions: BODIPY lipid droplet fluorescence, 18-24 h; for cell number change: measured here: cell count max response, cells fed with added oleic acid
How it was run: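 Laser-scanning cytometry quantifies lipid droplet accumulation (500–530 nm total intensity; droplet/cell object ratio) in oleic acid-fed (400 uM added) Drosophila S3 cells treated with a concentration series. 20 uM Triacsin C defined 100% inhibition.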

[1] = measured here: lipid fluorescence (Fed channel) AC50, cells fed with added oleic acid
[2] = measured here: cell number channel AC50, cells fed with added oleic acid

## COc1cc(C(=O)Nc2cccc(S(=O)(=O)N3CCCC3)c2)cc(OC)c1C
  cell number change: -20.8%
[1]
  AC50: 0.731 µM [falling, single point]

## Cc1ccc(Cn2ccc(NC(=O)c3noc4c3CCc3ccccc3-4)n2)cc1
[2]
  AC50: 1.3 µM [rising, partial curve]
[1]
  AC50: 0.00411 µM [rising, full curve, poor fit]

## c1ccc(Cc2nnc3n2N=C(c2ccccc2)CS3)cc1
  cell number change: 7.08%
[2]
  AC50: 0.731 µM [falling, full curve]
[1]
  AC50: 0.731 µM [falling, full curve]

## O=C(NCCCn1ccnc1)/C(=C\c1ccccc1F)NC(=O)c1ccccc1
  cell number change: -1.28%

## CC1S/C(=N/N=C/c2ccco2)N(Cc2ccccc2)C1=O (stereo not given)
  cell number change: 6.21%
[2]
  AC50: 0.092 µM [falling, full curve, poor fit]

## CCC(C)(C)n1nnnc1CN(Cc1ccco1)Cc1cc2cc3c(cc2[nH]c1=O)OCO3
  cell number change: -25.9%

## COc1ccccc1CC(=O)NC1CCN(Cc2ccccc2)CC1
  cell number change: 22.2%

## CC(Nc1c([N+](=O)[O-])c(=O)oc2ccccc12)C(Cl)c1ccccc1 (stereo not given)
  cell number change: 8.46%
[1]
  AC50: 0.0206 µM [rising, partial curve, poor fit]

## CNC[C@H](CC1CCCCC1)NC[C@H](CO)NCC1(c2ccccc2)CC1
  cell number change: 19.2%
[2]
  AC50: 1.84 µM [rising, partial curve, poor fit]

## CC(C)OC(=O)Nc1ccc(Oc2c(F)c(F)c(F)c(F)c2F)cc1
  cell number change: -43.9%
[2]
  AC50: 18.4 µM [falling, single point]
[1]
  AC50: 29.1 µM [falling, single point]

## CC(=O)c1ccc(N2CCN(C(=O)c3nn(Cc4ccccc4)c(=O)c4ccccc34)CC2)cc1
  cell number change: -24.5%
[1]
  AC50: 0.82 µM [falling, full curve, poor fit]

## O=C(Nc1cccs1)Nc1c(F)cc(F)cc1Br
  cell number change: 32.3%
[2]
  AC50: 2.06 µM [rising, full curve]
[1]
  AC50: 6.51 µM [rising, single point]

## COc1ccc(CCN2CCCC(CN(C)Cc3cc(OC)ccc3OC)C2)cc1 (stereo not given)
  cell number change: -4.92%
[1]
  AC50: 0.164 µM [rising, full curve, poor fit]

## Clc1cccc(N/N=C/c2ccncc2)c1
  cell number change: -9.84%
[1]
  AC50: 0.146 µM [rising, full curve, poor fit]

## Cc1ccc(NC(=O)CCNC(=O)c2ccc([N+](=O)[O-])cc2)cc1S(=O)(=O)N1CCOCC1
  cell number change: 6.89%
[1]
  AC50: 6.51 µM [falling, single point]

## COc1cccc(C(C(=O)NCc2ccccc2)N(C(=O)c2csnn2)C2CC2)c1 (stereo not given)
  cell number change: -12.4%

## Cc1cc(=O)oc2cc(OCC(=O)NCCc3ccccc3)ccc12
  cell number change: 7.89%

## CN(CC(=O)Nc1ccc(F)c(F)c1F)C(=O)CN1C(=O)NC2(CCCC2)C1=O
  cell number change: -3.21%

## CCCCN(C(=O)CC1CCCC1)c1c(N)n(CCCC)c(=O)[nH]c1=O
  cell number change: -5.42%
[1]
  AC50: 29.1 µM [falling, partial curve]

## COC(=O)c1sc(NC(=O)COC(=O)C2CCC2)c(C(=O)OC)c1C
  cell number change: -15.3%
[1]
  AC50: 0.326 µM [falling, full curve, poor fit]

## COc1ccc(C(C)=O)cc1CC(=O)Nc1ccccc1-c1ccccc1
  cell number change: -15.9%
[1]
  AC50: 4.61 µM [falling, full curve, poor fit]

## Cc1cc2c(=O)n(C)c(SCC(=O)NC3CCCC3)nc2s1
  cell number change: 20.8%
[2]
  AC50: 0.184 µM [rising, full curve, poor fit]
[1]
  AC50: 2.06 µM [rising, full curve]

## Cc1nnc(N2CCOCC2)c2nn(-c3ccccc3)c(C)c12
  cell number change: 8.61%
[1]
  AC50: 8.2 µM [rising, partial curve]

## CCc1cc(CNC(=O)C2CCC(=O)N(CCc3ccc(OC)cc3)C2)on1 (stereo not given)
  cell number change: 8.91%
[2]
  AC50: 3.26 µM [rising, single point]

## O=[N+]([O-])c1ccc(O)c(/C=N/NC(=S)Nc2ccc(Cl)cc2Cl)c1
  cell number change: -59.9%
[2]
  AC50: 0.92 µM [falling, full curve, poor fit]
[1]
  AC50: 5.8 µM [falling, partial curve]

## O=C1OC(Cc2ccccn2)C(O)=C1C1=NCCCCN1 (stereo not given)
  cell number change: -16.1%
[2]
  AC50: 3.66 µM [falling, single point]

## CC(C)c1ccc(NC(=S)NC2CCCCCC2)cc1
  cell number change: -32.3%
[2]
  AC50: 6.51 µM [falling, partial curve]

## N#Cc1cc2c(nc1S(=O)(=O)Cc1ccccc1)CCCC2
[1]
  AC50: 0.58 µM [falling, full curve]

## CCOc1ccccc1CN1CCNC(=O)C1CC(=O)NCc1nc(C)cs1 (stereo not given)
  cell number change: -0.567%
[1]
  AC50: 1.3 µM [rising, full curve]

## COc1ccccc1NC(=O)Cn1nnc(-c2ccccc2NC(=O)c2cc3ccccc3oc2=O)n1
  cell number change: -2.53%
[1]
  AC50: 0.259 µM [rising, full curve, poor fit]

## COc1cccc(CN2CC(C(=O)NCCCc3ccncc3)CCC2=O)c1 (stereo not given)
  cell number change: 9.83%
[1]
  AC50: 0.82 µM [rising, full curve, poor fit]

## CN(c1ccc(C(=O)Nc2cccc(O)c2)cc1)S(=O)(=O)c1ccccc1
  cell number change: 4.95%
[1]
  AC50: 29.1 µM [falling, single point]

## C=CCNC(=S)N1CCN(Cc2ccccc2)CC1
  cell number change: 17%

## COCc1cc(=O)[nH]c(SCC(=O)Nc2ccccc2)n1
  cell number change: -66.4%
[2]
  AC50: 25.9 µM [falling, single point]
[1]
  AC50: 29.1 µM [falling, single point]

## O=C(NCc1ccco1)c1ccccc1-c1nc(-c2ccccc2)no1
  cell number change: 0.349%

## CC(C)CNS(=O)(=O)c1ccc(CCC(=O)N2CCC(C(N)=O)CC2)cc1
  cell number change: -4.5%
[2]
  AC50: 0.58 µM [falling, single point]

## Cc1cccc(-n2ccnc2SCC(=O)Nc2nnc(C)s2)c1
  cell number change: 31.1%
[2]
  AC50: 1.84 µM [rising, single point]
[1]
  AC50: 29.1 µM [rising, single point]

## O=C(NNS(=O)(=O)c1ccc(Cl)cc1)c1cc(-c2ccccc2)nc2ccccc12
  cell number change: 30.4%
[2]
  AC50: 6.51 µM [rising, partial curve]
[1]
  AC50: 1.84 µM [rising, full curve]
